# Test results as given in the supplement of paper PMC6411743.
# The chains behind the UniProt entries cited, without tags or fusion partners. Where a name states a change or a piece, a line headed by the entry shows the natural chain unless it says otherwise.
# UniProt Q15785: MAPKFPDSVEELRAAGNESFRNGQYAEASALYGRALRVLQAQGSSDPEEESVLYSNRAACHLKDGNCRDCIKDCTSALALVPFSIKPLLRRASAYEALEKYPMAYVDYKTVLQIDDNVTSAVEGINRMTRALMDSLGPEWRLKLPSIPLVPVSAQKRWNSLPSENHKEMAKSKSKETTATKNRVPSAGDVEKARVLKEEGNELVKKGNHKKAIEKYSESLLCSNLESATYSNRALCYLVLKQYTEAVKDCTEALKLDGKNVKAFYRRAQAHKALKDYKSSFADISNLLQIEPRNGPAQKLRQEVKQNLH
# UniProt Q15758: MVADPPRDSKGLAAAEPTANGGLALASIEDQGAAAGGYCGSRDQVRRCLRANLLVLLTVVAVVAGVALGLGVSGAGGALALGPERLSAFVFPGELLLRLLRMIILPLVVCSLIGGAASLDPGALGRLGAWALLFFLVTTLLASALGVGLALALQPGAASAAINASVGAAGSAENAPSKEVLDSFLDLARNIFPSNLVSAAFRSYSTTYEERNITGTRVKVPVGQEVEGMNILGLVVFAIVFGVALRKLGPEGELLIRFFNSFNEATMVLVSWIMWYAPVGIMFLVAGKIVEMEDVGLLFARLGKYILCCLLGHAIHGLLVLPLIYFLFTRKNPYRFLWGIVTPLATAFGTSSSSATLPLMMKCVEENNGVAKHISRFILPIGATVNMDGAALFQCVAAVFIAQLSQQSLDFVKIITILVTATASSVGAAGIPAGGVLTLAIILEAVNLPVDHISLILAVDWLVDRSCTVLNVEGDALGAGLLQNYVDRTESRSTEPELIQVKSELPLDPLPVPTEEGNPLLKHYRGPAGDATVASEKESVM
# UniProt Q14240, whole entry: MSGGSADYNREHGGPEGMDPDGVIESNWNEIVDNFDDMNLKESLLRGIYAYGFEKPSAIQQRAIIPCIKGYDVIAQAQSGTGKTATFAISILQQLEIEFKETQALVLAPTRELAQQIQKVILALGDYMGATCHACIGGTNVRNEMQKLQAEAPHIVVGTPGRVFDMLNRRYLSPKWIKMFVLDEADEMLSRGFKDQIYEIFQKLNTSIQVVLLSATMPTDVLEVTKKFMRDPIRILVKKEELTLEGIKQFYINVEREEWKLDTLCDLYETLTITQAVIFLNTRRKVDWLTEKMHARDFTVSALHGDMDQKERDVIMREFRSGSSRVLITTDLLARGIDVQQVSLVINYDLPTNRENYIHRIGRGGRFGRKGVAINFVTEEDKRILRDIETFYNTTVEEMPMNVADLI
# UniProt Q15003, whole entry: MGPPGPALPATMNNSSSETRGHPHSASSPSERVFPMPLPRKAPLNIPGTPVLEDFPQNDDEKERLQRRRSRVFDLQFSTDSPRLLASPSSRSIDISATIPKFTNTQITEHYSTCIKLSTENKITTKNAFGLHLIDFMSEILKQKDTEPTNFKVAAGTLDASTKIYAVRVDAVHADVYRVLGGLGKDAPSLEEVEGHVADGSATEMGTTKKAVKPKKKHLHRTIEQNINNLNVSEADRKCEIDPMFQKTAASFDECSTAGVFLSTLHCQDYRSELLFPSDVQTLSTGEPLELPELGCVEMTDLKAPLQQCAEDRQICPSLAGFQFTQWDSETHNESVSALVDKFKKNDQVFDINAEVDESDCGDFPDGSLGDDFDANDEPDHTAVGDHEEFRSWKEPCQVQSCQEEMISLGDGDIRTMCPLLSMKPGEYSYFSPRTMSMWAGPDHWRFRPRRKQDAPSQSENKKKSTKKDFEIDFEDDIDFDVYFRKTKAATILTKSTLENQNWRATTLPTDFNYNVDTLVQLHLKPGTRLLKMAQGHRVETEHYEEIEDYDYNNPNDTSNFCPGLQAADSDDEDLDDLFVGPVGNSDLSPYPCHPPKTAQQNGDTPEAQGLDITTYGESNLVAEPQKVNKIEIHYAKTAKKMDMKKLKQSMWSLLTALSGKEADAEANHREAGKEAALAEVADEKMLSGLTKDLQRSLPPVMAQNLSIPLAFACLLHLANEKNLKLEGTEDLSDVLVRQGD
# UniProt Q15649: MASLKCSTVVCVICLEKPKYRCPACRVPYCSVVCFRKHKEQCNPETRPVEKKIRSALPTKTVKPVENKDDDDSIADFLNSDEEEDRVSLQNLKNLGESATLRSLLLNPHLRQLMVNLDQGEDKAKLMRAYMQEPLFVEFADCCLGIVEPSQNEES
# UniProt Q15042: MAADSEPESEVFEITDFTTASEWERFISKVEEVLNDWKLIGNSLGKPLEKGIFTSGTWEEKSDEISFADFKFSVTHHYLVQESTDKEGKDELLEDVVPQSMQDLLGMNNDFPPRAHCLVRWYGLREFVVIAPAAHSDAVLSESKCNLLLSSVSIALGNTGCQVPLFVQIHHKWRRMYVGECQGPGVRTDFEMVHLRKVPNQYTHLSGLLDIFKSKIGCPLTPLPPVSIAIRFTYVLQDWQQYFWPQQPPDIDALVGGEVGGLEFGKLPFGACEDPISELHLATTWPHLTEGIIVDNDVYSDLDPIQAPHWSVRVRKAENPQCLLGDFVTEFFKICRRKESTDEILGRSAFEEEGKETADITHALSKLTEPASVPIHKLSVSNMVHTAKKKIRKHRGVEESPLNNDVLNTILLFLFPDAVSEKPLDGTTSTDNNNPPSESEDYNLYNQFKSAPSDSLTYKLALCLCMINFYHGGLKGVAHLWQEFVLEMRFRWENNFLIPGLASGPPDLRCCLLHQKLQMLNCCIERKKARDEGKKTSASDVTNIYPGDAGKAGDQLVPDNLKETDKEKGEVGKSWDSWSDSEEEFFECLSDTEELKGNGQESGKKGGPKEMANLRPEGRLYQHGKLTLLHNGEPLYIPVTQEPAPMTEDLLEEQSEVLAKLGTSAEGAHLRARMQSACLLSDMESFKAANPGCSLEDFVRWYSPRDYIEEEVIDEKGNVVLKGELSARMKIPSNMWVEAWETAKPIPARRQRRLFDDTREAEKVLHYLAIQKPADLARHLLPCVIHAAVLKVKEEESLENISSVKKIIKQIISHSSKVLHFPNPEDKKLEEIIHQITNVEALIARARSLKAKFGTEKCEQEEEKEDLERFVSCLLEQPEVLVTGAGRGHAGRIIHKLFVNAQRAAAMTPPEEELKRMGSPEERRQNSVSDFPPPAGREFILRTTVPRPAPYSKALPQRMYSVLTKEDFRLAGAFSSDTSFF
# UniProt Q15773: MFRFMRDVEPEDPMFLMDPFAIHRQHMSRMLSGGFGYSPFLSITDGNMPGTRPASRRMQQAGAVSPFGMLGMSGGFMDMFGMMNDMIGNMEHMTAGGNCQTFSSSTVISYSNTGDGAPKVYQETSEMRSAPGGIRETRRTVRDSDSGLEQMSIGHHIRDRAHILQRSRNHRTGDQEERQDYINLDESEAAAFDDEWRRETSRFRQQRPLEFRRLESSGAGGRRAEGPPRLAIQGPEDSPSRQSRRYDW
# UniProt Q15075: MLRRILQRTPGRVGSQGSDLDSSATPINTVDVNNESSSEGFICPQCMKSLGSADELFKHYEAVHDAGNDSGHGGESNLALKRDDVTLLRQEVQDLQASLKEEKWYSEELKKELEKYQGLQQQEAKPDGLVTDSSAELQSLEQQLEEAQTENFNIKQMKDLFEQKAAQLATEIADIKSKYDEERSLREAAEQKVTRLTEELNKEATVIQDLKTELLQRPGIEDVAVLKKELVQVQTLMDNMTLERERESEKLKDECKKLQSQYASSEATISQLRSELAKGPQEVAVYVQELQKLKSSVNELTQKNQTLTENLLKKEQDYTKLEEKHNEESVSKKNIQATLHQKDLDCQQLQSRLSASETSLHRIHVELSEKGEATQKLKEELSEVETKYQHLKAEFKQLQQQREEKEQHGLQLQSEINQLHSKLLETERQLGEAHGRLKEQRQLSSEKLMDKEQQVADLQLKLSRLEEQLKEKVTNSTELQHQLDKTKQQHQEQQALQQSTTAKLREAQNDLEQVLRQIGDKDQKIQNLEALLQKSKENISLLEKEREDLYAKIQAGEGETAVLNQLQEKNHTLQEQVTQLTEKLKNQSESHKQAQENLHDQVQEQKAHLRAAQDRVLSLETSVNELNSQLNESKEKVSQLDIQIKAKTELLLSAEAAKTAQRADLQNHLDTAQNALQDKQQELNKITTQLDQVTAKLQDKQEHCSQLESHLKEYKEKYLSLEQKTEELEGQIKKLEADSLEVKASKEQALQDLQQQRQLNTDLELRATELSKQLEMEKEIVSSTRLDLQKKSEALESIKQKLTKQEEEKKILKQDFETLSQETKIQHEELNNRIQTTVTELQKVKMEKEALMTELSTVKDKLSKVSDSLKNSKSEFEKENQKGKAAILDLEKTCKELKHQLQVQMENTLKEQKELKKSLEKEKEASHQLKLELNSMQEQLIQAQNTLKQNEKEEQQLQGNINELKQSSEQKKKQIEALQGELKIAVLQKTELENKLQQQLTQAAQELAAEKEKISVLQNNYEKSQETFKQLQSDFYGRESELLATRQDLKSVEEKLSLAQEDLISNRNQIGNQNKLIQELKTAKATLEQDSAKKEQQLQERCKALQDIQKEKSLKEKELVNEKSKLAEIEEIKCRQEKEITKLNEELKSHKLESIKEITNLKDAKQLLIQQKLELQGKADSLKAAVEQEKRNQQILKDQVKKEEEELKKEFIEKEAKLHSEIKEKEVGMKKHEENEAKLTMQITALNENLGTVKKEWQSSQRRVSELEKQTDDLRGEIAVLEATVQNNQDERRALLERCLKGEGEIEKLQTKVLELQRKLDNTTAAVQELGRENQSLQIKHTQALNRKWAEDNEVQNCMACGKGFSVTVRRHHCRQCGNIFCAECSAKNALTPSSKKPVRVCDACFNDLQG
# UniProt Q14694, whole entry: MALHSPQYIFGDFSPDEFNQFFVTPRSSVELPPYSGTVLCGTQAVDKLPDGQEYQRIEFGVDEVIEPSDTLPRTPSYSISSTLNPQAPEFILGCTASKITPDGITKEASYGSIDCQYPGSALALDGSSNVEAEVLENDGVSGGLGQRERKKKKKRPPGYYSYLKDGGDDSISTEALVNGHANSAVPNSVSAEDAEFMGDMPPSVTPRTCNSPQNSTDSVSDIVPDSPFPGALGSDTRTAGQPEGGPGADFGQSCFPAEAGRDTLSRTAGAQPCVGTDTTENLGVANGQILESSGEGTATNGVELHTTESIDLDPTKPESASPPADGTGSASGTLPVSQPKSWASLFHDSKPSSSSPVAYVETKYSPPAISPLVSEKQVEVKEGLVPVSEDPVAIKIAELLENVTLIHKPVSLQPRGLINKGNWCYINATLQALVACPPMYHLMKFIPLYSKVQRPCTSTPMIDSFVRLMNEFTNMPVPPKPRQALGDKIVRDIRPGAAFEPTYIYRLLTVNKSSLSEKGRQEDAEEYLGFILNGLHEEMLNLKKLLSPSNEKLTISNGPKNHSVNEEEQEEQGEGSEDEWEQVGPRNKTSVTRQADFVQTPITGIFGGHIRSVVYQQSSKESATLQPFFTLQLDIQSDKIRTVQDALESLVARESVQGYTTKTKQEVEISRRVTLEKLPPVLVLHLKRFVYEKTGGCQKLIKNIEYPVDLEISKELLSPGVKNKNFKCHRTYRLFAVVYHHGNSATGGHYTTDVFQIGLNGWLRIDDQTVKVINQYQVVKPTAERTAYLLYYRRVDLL
# UniProt Q17RN3: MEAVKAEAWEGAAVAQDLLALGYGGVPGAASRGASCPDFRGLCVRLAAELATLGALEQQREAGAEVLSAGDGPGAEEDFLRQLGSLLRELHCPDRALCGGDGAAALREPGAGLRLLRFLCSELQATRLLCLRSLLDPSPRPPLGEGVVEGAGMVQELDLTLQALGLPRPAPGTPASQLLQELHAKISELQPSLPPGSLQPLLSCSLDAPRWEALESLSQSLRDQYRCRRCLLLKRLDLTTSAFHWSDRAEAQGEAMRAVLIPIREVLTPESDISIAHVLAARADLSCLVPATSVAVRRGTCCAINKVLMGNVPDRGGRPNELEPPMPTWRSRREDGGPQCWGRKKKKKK
# UniProt Q16134: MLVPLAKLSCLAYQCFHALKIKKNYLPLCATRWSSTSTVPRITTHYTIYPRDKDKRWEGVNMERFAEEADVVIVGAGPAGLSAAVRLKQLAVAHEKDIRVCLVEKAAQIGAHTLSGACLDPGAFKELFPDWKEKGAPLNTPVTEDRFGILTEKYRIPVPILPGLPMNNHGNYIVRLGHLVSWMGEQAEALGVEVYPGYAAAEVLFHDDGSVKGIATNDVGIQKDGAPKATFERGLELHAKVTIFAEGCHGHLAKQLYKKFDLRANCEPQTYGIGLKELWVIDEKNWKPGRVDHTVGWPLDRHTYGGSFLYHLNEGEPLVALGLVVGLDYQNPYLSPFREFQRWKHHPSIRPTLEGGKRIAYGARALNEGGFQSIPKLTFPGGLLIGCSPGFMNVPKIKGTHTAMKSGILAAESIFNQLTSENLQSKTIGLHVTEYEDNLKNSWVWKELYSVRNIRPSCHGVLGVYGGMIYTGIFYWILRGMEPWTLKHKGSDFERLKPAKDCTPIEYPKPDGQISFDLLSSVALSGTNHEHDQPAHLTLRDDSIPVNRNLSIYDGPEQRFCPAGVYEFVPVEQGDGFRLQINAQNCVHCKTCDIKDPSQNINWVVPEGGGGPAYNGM
# ± gives the standard deviation of the averaged measurements. Only a part is listed here, and it is no random draw.
# Compound: Nc1ncnc2c1ncn2[C@@H]1O[C@H](COP(=O)(O)OP(=O)(O)OP(=O)(O)O)[C@@H](O)[C@H]1O [adenosine triphosphate]
# Assay: NP40-soluble protein abundance relative to vehicle (solubility fold change) (ratio); higher = more soluble protein in presence of ATP
# Outline: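 Each value is a fold change relative to the detergent-processed vehicle, calculated per replicate from vsn-normalised intensities. Jurkat crude lysate received eight concentrations (0.1 to 10 mM) for 10 min at room temperature and 3 min at 37 °C, then was solubilised in 0.8% NP40 with benzonase (60 min, 4 °C). The ultracentrifuged supernatant was TMT-labelled and run by LC-MS/MS in three independent experiments.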
Target,NP40-soluble protein abundance (concentration: 1mM),NP40-soluble protein abundance (concentration: 2mM),NP40-soluble protein abundance (concentration: 4mM),NP40-soluble protein abundance (concentration: 6mM),NP40-soluble protein abundance (concentration: 8mM),NP40-soluble protein abundance (concentration: 10mM)
AP5B1 (UniProt Q2VPB7),0.918 ± 0.011,0.885 ± 0.081,0.947 ± 0.037,0.841 ± 0.047,0.926 ± 0.11,0.908 ± 0.052
UBE2S (UniProt Q16763),1 ± 0.032,1.02 ± 0.004,1.04 ± 0.026,0.965 ± 0.07,1 ± 0.055,0.998 ± 0.037
UniProt Q16877 and related entries,1 ± 0.095,0.926 ± 0.17,1 ± 0.045,0.972 ± 0.07,0.991 ± 0.1,0.967 ± 0.043
ACSF3 (UniProt Q4G176),1.05 ± 0.15,1.05 ± 0.14,1 ± 0.088,0.923 ± 0.2,1.04 ± 0.062,1.02 ± 0.088
TOMM34 (UniProt Q15785),0.908 ± 0.053,0.97 ± 0.016,0.927 ± 0.012,0.984 ± 0.021,0.912 ± 0.022,0.902 ± 0.051
FAM50A (UniProt Q14320),0.931 ± 0.1,0.922 ± 0.071,0.922 ± 0.043,0.909 ± 0.081,0.941 ± 0.06,0.931 ± 0.043
UniProt Q14318-2|Q14318,0.975 ± 0.033,0.96 ± 0.024,0.919 ± 0.039,0.97 ± 0.022,0.92 ± 0.013,0.9411 ± 0.0055
SLC1A5 (UniProt Q15758),0.934 ± 0.061,0.917 ± 0.026,0.925 ± 0.043,0.902 ± 0.049,0.882 ± 0.025,0.897 ± 0.026
UniProt Q16666 and related entries,1.3 ± 0.043,1.39 ± 0.048,1.42 ± 0.047,1.49 ± 0.11,1.53 ± 0.048,1.57 ± 0.029
ARHGEF6 (UniProt Q15052),0.965 ± 0.038,0.981 ± 0.019,0.968 ± 0.011,0.975 ± 0.048,0.995 ± 0.021,0.977 ± 0.026
UniProt Q15599 and related entries,0.949 ± 0.031,0.9386 ± 0.0084,0.938 ± 0.033,0.929 ± 0.01,0.865 ± 0.023,0.858 ± 0.056
NSDHL (UniProt Q15738),0.957 ± 0.042,0.948 ± 0.048,0.931 ± 0.022,0.916 ± 0.1,0.937 ± 0.037,0.931 ± 0.054
TFDP1 (UniProt Q14186),0.997 ± 0.07,0.974 ± 0.073,1 ± 0.025,1.03 ± 0.038,0.969 ± 0.11,0.981 ± 0.067
PLS1 (UniProt Q14651),0.98 ± 0.026,0.986 ± 0.033,0.962 ± 0.03,0.938 ± 0.079,0.914 ± 0.019,0.962 ± 0.054
HSDL1 (UniProt Q3SXM5),1.09 ± 0.24,0.968 ± 0.19,0.967 ± 0.16,0.806 ± 0.2,1.02 ± 0.043,0.983 ± 0.079
TMED2 (UniProt Q15363),1.04 ± 0.18,1.01 ± 0.18,0.978 ± 0.13,0.921 ± 0.2,1.05 ± 0.13,0.967 ± 0.13
UniProt Q15257 and related entries,0.948 ± 0.056,0.937 ± 0.054,0.912 ± 0.047,0.893 ± 0.08,0.873 ± 0.028,0.878 ± 0.049
ALG11 (UniProt Q2TAA5),0.919 ± 0.17,0.973 ± 0.16,0.982 ± 0.09,0.915 ± 0.18,0.972 ± 0.13,1.01 ± 0.12
UniProt Q3YEC7 and related entries,0.947 ± 0.011,0.939 ± 0.017,0.922 ± 0.026,0.9372 ± 0.0047,0.9061 ± 0.005,0.9121 ± 0.0072
UniProt Q14240-2|Q14240,1.14 ± 0.091,1.15 ± 0.069,1.11 ± 0.067,1.15 ± 0.13,1.21 ± 0.066,1.21 ± 0.03

Target,NP40-soluble protein abundance (concentration: 1mM),NP40-soluble protein abundance (concentration: 2mM),NP40-soluble protein abundance (concentration: 4mM),NP40-soluble protein abundance (concentration: 6mM),NP40-soluble protein abundance (concentration: 8mM),NP40-soluble protein abundance (concentration: 10mM)
UniProt Q15003 and related entries,0.976 ± 0.044,0.962 ± 0.038,0.942 ± 0.025,0.977 ± 0.047,0.943 ± 0.013,0.944 ± 0.015
LARS2 (UniProt Q15031),1.02 ± 0.079,0.981 ± 0.087,0.984 ± 0.069,0.942 ± 0.13,1.01 ± 0.047,0.952 ± 0.034
SAFB2 (UniProt Q14151),0.972 ± 0.073,1 ± 0.071,1.06 ± 0.066,1.14 ± 0.1,1.13 ± 0.046,1.23 ± 0.048
UniProt Q15056 and related entries,0.92 ± 0.049,0.9197 ± 0.0031,0.922 ± 0.03,0.9303 ± 0.0084,0.921 ± 0.013,0.896 ± 0.032
UniProt Q14653 and related entries,1.03 ± 0.052,0.949 ± 0.067,0.949 ± 0.043,0.953 ± 0.11,0.924 ± 0.042,0.956 ± 0.068
UniProt Q16539 and related entries,0.983 ± 0.062,0.973 ± 0.072,0.986 ± 0.022,0.923 ± 0.11,0.98 ± 0.057,0.958 ± 0.037
UniProt Q14596 and related entries,0.943 ± 0.064,0.954 ± 0.12,0.946 ± 0.097,0.924 ± 0.13,0.962 ± 0.19,0.909 ± 0.13
SF3A1 (UniProt Q15459),1.05 ± 0.03,1.07 ± 0.022,1.05 ± 0.037,1.09 ± 0.022,1.06 ± 0.05,1.09 ± 0.035
SNAPC1 (UniProt Q16533),0.946 ± 0.064,1.06 ± 0.067,1.1 ± 0.079,1.07 ± 0.055,1.11 ± 0.11,1.1 ± 0.056
ZNHIT3 (UniProt Q15649),0.958 ± 0.11,1.04 ± 0.14,1.04 ± 0.088,1.03 ± 0.041,0.983 ± 0.11,1 ± 0.083
SF3A2 (UniProt Q15428),1.05 ± 0.084,0.973 ± 0.25,1.08 ± 0.064,1.11 ± 0.056,1.07 ± 0.032,1.06 ± 0.11
ELAVL1 (UniProt Q15717),0.987 ± 0.034,0.965 ± 0.029,0.935 ± 0.012,0.996 ± 0.031,0.974 ± 0.018,0.973 ± 0.036
UniProt Q16576 and related entries,1.04 ± 0.013,0.993 ± 0.0099,1 ± 0.038,0.989 ± 0.038,1 ± 0.046,0.954 ± 0.019
CCDC6 (UniProt Q16204),0.956 ± 0.088,0.927 ± 0.036,0.882 ± 0.055,0.942 ± 0.052,0.8947 ± 0.0069,0.853 ± 0.05
GNA13 (UniProt Q14344),1.04 ± 0.097,0.99 ± 0.066,1 ± 0.073,0.955 ± 0.11,1.02 ± 0.067,0.957 ± 0.054
UniProt Q14197,1.01 ± 0.048,0.923 ± 0.1,0.906 ± 0.049,0.939 ± 0.22,0.928 ± 0.11,0.89 ± 0.12
TRMT5 (UniProt Q32P41),0.962 ± 0.038,0.972 ± 0.052,0.948 ± 0.049,0.938 ± 0.072,0.957 ± 0.025,0.961 ± 0.036
MAPRE1 (UniProt Q15691),0.913 ± 0.077,0.914 ± 0.031,0.879 ± 0.033,0.934 ± 0.053,0.881 ± 0.032,0.849 ± 0.041
UniProt Q15750 and related entries,0.995 ± 0.033,0.985 ± 0.024,0.993 ± 0.034,0.982 ± 0.033,0.929 ± 0.015,0.974 ± 0.03
UniProt Q15042 and related entries,1.01 ± 0.015,0.998 ± 0.016,0.993 ± 0.017,0.972 ± 0.013,0.974 ± 0.021,0.978 ± 0.037

# Given as tab-separated lines: part of the list above.
Target	NP40-soluble protein abundance (concentration: 1mM)	NP40-soluble protein abundance (concentration: 2mM)	NP40-soluble protein abundance (concentration: 4mM)	NP40-soluble protein abundance (concentration: 6mM)	NP40-soluble protein abundance (concentration: 8mM)	NP40-soluble protein abundance (concentration: 10mM)
ELAVL1 (UniProt Q15717)	0.987 ± 0.034	0.965 ± 0.029	0.935 ± 0.012	0.996 ± 0.031	0.974 ± 0.018	0.973 ± 0.036
UniProt Q16576 and related entries	1.04 ± 0.013	0.993 ± 0.0099	1 ± 0.038	0.989 ± 0.038	1 ± 0.046	0.954 ± 0.019

# (further entries)

Target,NP40-soluble protein abundance (concentration: 1mM),NP40-soluble protein abundance (concentration: 2mM),NP40-soluble protein abundance (concentration: 4mM),NP40-soluble protein abundance (concentration: 6mM),NP40-soluble protein abundance (concentration: 8mM),NP40-soluble protein abundance (concentration: 10mM)
MLF2 (UniProt Q15773),0.785 ± 0.09,0.729 ± 0.018,0.717 ± 0.027,0.713 ± 0.021,0.712 ± 0.014,0.732 ± 0.045
EEA1 (UniProt Q15075),0.947 ± 0.052,0.952 ± 0.018,0.942 ± 0.018,0.993 ± 0.02,0.921 ± 0.025,0.918 ± 0.013
UniProt Q14693 and related entries,1.03 ± 0.11,1.02 ± 0.076,0.987 ± 0.042,0.934 ± 0.1,0.967 ± 0.06,0.983 ± 0.048
PMVK (UniProt Q15126),0.955 ± 0.019,0.976 ± 0.025,0.939 ± 0.038,0.932 ± 0.044,0.946 ± 0.047,0.946 ± 0.04
UniProt Q16698 and related entries,0.982 ± 0.022,1.03 ± 0.028,1.09 ± 0.028,1.16 ± 0.039,1.12 ± 0.047,1.11 ± 0.062
TERF2 (UniProt Q15554),1.03 ± 0.033,1.071 ± 0.01,1.08 ± 0.017,1.09 ± 0.012,1.06 ± 0.019,1.11 ± 0.022
UniProt Q16851 and related entries,0.97 ± 0.015,0.9543 ± 0.005,0.929 ± 0.028,0.948 ± 0.036,0.95 ± 0.015,0.952 ± 0.032
TBCC (UniProt Q15814),0.937 ± 0.011,0.954 ± 0.011,0.985 ± 0.022,0.946 ± 0.035,0.946 ± 0.026,0.95 ± 0.022
BMS1 (UniProt Q14692),1.02 ± 0.097,1.02 ± 0.074,1.04 ± 0.052,1.06 ± 0.077,1.02 ± 0.02,1.01 ± 0.073
UniProt Q14789 and related entries,0.971 ± 0.035,0.97 ± 0.031,0.967 ± 0.031,1 ± 0.048,0.941 ± 0.025,0.949 ± 0.017
MED1 (UniProt Q15648),0.985 ± 0.064,0.983 ± 0.061,0.987 ± 0.072,1 ± 0.047,0.965 ± 0.054,1.02 ± 0.06
UniProt Q14694 and related entries,1.05 ± 0.025,1.13 ± 0.028,1.21 ± 0.047,1.3 ± 0.048,1.34 ± 0.04,1.41 ± 0.049
FAM98C (UniProt Q17RN3),0.962 ± 0.051,0.989 ± 0.038,1.02 ± 0.018,0.938 ± 0.038,0.961 ± 0.021,0.985 ± 0.036
TSR1 (UniProt Q2NL82),0.869 ± 0.031,0.866 ± 0.078,0.917 ± 0.071,0.979 ± 0.095,1.06 ± 0.11,1.13 ± 0.12
UniProt Q15020 and related entries,0.989 ± 0.022,0.958 ± 0.026,0.958 ± 0.033,0.975 ± 0.041,0.983 ± 0.04,0.976 ± 0.048
MAPKAPK3 (UniProt Q16644),0.948 ± 0.034,0.926 ± 0.031,0.894 ± 0.04,0.919 ± 0.035,0.898 ± 0.035,0.87 ± 0.045
KPNB1 (UniProt Q14974),0.997 ± 0.031,1.023 ± 0.0065,0.997 ± 0.016,1.02 ± 0.016,1.01 ± 0.017,0.994 ± 0.045
ETFDH (UniProt Q16134),1 ± 0.064,0.984 ± 0.048,0.98 ± 0.019,0.957 ± 0.076,0.984 ± 0.046,0.98 ± 0.052
UniProt Q4G148 and related entries,0.881 ± 0.056,0.9 ± 0.011,0.9022 ± 0.0037,0.854 ± 0.081,0.863 ± 0.066,0.894 ± 0.014
UniProt Q15560 and related entries,1.03 ± 0.075,0.941 ± 0.046,1.06 ± 0.059,1.06 ± 0.049,0.932 ± 0.062,1.05 ± 0.075

# Part of the list above, reduced to NP40-soluble protein abundance (concentration: 10mM).
Target	NP40-soluble protein abundance (concentration: 10mM)
EEA1 (UniProt Q15075)	0.918 ± 0.013
KPNB1 (UniProt Q14974)	0.994 ± 0.045
